Taken from: PubChem BioAssay AID743121 (NCATS, 2013)
Aim: 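Genes whose silencing strengthens cell killing by camptothecin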 (primary screen). Cell system: MDA-MB-231 cells, a human breast cancer line. Knock-down reagent: single siRNA against human genes, 20 nM siRNA (0.8 pmol per well). Timing: 120 h (drug added 48 h after transfection, read 72 h later). Treatment: camptothecin 20 nM (about EC30) for 72 h; vehicle 0.1% DMSO in parallel plates. Measurement: 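CellTiter-Glo ATP signal, scaled to control siRNA as percent viability; sensitisation given as log2 of untreated divided by camptothecin-treated viability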. Direction: log2 vehicle/camptothecin viability: higher = stronger sensitisation to camptothecin; viability with camptothecin and viability without drug: higher = more viable cells. Call rule: 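Each gene scored by redundant siRNA activity (RSA) over its individual siRNA ratios; a gene is called active at p < 0.001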.
Shown is one part, drawn at random, of about 26,000 reagents tested. Of all reagents, 167 (0.63%) were called active. 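Calls are per gene from RSA p-values that are not deposited; an individual active-marked siRNA can sensitise only weakly.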 Reagents against one gene are numbered here.

gene | reagent | log2 vehicle/camptothecin viability | viability with camptothecin (% of control) | viability without drug (% of control) | call
SLC39A6 | 1 | -0.0322 | 35.6 | 34.8 | inactive
SLC39A6 | 2 | 0.858 | 28.8 | 52.2 | inactive
SLC39A6 | 3 | -0.225 | 95.2 | 81.5 | inactive
SLC39A6 | 4 | 0.0573 | 15.9 | 16.6 | inactive
SIRPD | 1 | -0.513 | 57.7 | 40.4 | inactive
SIRPD | 2 | -0.104 | 35.1 | 32.7 | inactive
SIRPD | 3 | -0.503 | 72.4 | 51.1 | inactive
SIRPD | 4 | -0.164 | 87.7 | 78.3 | inactive
SPEG | 1 | 0.115 | 93.8 | 102 | inactive
SPEG | 2 | 0.216 | 73.4 | 85.2 | inactive
SPEG | 3 | -0.449 | 69.3 | 50.8 | inactive
SPEG | 4 | -0.194 | 23.1 | 20.2 | inactive
ITGB7 | 1 | 0.0312 | 61.6 | 62.9 | inactive
ITGB7 | 2 | -0.13 | 104 | 94.9 | inactive
ITGB7 | 3 | -0.276 | 65.6 | 54.2 | inactive
ITGB7 | 4 | -0.371 | 93.9 | 72.6 | inactive

Entries above whose gene name starts with I or i (4):
gene | reagent | log2 vehicle/camptothecin viability | viability with camptothecin (% of control) | viability without drug (% of control) | call
ITGB7 | 1 | 0.0312 | 61.6 | 62.9 | inactive
ITGB7 | 2 | -0.13 | 104 | 94.9 | inactive
ITGB7 | 3 | -0.276 | 65.6 | 54.2 | inactive
ITGB7 | 4 | -0.371 | 93.9 | 72.6 | inactive

Further entries follow.
gene | reagent | log2 vehicle/camptothecin viability | viability with camptothecin (% of control) | viability without drug (% of control) | call
PSMC5 | 1 | -0.254 | 10.7 | 8.97 | inactive
PSMC5 | 2 | -0.574 | 13.9 | 9.37 | inactive
PSMC5 | 3 | -0.359 | 13.5 | 10.6 | inactive
PSMC5 | 4 | 0.053 | 3.53 | 3.66 | inactive
UNC119 | 1 | 0.473 | 48.1 | 66.8 | inactive
UNC119 | 2 | -0.284 | 95.6 | 78.5 | inactive
UNC119 | 3 | -0.469 | 69 | 49.9 | inactive
CANX | 1 | -0.00534 | 58.6 | 58.4 | inactive
CANX | 2 | -0.31 | 96.9 | 78.2 | inactive
CANX | 3 | -0.0673 | 76.8 | 73.3 | inactive
CANX | 4 | -0.132 | 75.3 | 68.7 | inactive
PRKCQ | 1 | 0.0285 | 77.1 | 78.6 | inactive
PRKCQ | 2 | 0.167 | 70.4 | 79.1 | inactive
PRKCQ | 3 | -0.175 | 113 | 100 | inactive
PRKCQ | 4 | -0.29 | 51.6 | 42.2 | inactive
